No constants are given. Whether binding was seen depends on the method and setting. Binding seen in cells or lysates may run through a third protein. Binding can be weak; no strength is given. Tags and fused reporters may be left off the sequences shown.
T1: FLAG-IRTKS (full-length IRTKS, BAIAP2L1) (human) (UniProt Q9UHR4)
T1 sequence: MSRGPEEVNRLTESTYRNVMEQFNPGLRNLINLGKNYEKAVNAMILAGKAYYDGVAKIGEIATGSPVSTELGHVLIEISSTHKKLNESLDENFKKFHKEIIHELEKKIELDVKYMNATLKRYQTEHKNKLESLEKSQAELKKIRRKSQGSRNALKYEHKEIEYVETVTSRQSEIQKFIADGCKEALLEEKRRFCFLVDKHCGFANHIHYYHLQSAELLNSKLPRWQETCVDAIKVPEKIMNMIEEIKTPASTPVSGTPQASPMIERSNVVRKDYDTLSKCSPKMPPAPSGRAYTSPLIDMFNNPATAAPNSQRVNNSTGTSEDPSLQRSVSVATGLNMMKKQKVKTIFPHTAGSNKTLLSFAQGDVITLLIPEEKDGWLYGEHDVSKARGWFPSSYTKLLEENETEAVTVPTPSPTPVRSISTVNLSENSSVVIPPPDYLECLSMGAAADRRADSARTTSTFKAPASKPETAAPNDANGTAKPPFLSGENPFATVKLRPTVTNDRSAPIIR


What was measured:
[1] = molecular target: T1, FLAG-IRTKS (full-length IRTKS, BAIAP2L1) (human); assay: co-IP; coexpressed in transfected cells; FLAG bait immunoprecipitated with anti-DYKDDDDK agarose beads, 2 h at 4 °C; co-IP buffer 50 mM Tris pH 7.0, 150 mM NaCl, 1 mM EDTA, 5 mM NaF, 0.5% Triton X-100; BirA*-tagged prey detected by immunoblot
[2] = molecular target: FMNL2-mCherry (human); assay: co-IP; coexpressed in transfected cells; mCherry bait immunoprecipitated with RFP-Trap beads, 2 h at 4 °C; co-IP buffer 50 mM Tris pH 7.0, 150 mM NaCl, 1 mM EDTA, 5 mM NaF, 0.5% Triton X-100; prey detected by immunoblot for its epitope tag

Row | binding [1] | binding [2] | Molecule
1 | binds | – | FMNL2.G2A-BirA* (human)
2 | binds | – | FMNL2.I705A-BirA* (human)
3 | – | binds | FLAG-IRTKS (full-length IRTKS, BAIAP2L1) (protein, UniProt Q9UHR4 1-511) MSRGPEEVNRLTESTYRNVMEQFNPGLRNLINLGKNYEKAVNAMILAGKAYYDGVAKIGEIATGSPVSTELGHVLIEISSTHKKLNESLDENFKKFHKEIIHELEKKIELDVKYMNATLKRYQTEHKNKLESLEKSQAELKKIRRKSQGSRNALKYEHKEIEYVETVTSRQSEIQKFIADGCKEALLEEKRRFCFLVDKHCGFANHIHYYHLQSAELLNSKLPRWQETCVDAIKVPEKIMNMIEEIKTPASTPVSGTPQASPMIERSNVVRKDYDTLSKCSPKMPPAPSGRAYTSPLIDMFNNPATAAPNSQRVNNSTGTSEDPSLQRSVSVATGLNMMKKQKVKTIFPHTAGSNKTLLSFAQGDVITLLIPEEKDGWLYGEHDVSKARGWFPSSYTKLLEENETEAVTVPTPSPTPVRSISTVNLSENSSVVIPPPDYLECLSMGAAADRRADSARTTSTFKAPASKPETAAPNDANGTAKPPFLSGENPFATVKLRPTVTNDRSAPIIR
